# Experimental data published in patent US20050148035A1.
# Protein sequences, listed by entry. Tags and fused reporters are not part of them. Lines headed by an entry give the natural chain unless they say otherwise; changes in a name come on top.
# UniProt P17936: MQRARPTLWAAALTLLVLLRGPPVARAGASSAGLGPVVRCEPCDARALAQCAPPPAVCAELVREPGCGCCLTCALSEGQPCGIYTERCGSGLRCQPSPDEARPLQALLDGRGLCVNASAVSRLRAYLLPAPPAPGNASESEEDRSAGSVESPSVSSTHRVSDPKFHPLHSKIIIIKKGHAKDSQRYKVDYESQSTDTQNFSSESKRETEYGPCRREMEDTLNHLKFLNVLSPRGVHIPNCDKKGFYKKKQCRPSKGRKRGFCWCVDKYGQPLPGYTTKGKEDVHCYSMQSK
# Results are given in words; binding and its absence hold for the method and conditions named. Some results given as binding are weak or reduced against the parent protein; the word gives no strength.
# Key:
# [1] = biological target: native-sequence human IGFBP-3 (human) (UniProt P17936); experiment: BIAcore competition, bp15 preincubated with IGFBP-3, injected over immobilised biotinylated IGF-I and IGF-II
# [2] = biological target: native-sequence human IGFBP-3 (human) (UniProt P17936); experiment: BIAcore competition
binder,measurement,setting,value
SEEVCWPVAEWYLCN [peptide bp15],binding,[1],binds
same,binding,[2],binds
